# Assay results from PubChem BioAssay AID2685 (National Center for Advancing Translational Sciences (NCATS), 2010).
# This is one part of the list. These are further read-outs of the screen, such as a control signal, another cell line or another target. No call is given for them. Most of these compounds were active or inconclusive in the main read-out, so they are no random draw. The note in brackets gives the kind of curve behind each potency; many fits are weak.
# Test: qHTS Assay for Lipid Storage Modulators in Drosophila S3 Cells;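 on cell number change: cells counted by Cell Tracker Red CMTPX staining in the red channel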
# Conditions: BODIPY lipid droplet fluorescence, 18-24 h; for cell number change: measured here: cell count max response, cells fed with added oleic acid
# Method in brief: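 Drosophila S3 cells got compounds at several concentrations plus oleic acid (400 uM solution). Laser-scanning cytometry with 488 nm excitation read lipid droplets at 500-530 nm and cells at 575-640 nm. Percent activity was relative to 20 uM Triacsin C.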
# [1] = measured here: cell number channel AC50, cells fed with added oleic acid
# [2] = measured here: lipid fluorescence (Fed channel) AC50, cells fed with added oleic acid
SMILES,cell number change,AC50 [1],AC50 [2]
O=C1c2ccccc2C(=O)N1CCN1CCOCC1,3.24%,–,–
CC1CCN(C(=O)c2ccc(NC(=O)C3CCCO3)cc2)CC1 (stereo unspecified),147%,"20.6 µM [rising, partial curve]","29.1 µM [rising, single point]"
O=C(N/N=C/c1ccc2c(c1)OCO2)c1ccc(Cn2cc([N+](=O)[O-])cn2)o1,37.9%,"13 µM [rising, partial curve, poor fit]","0.00461 µM [rising, full curve, poor fit]"
COc1ccccc1CNC(=O)COC(=O)C1CC1,22.5%,–,"0.651 µM [rising, single point]"
CCOC(=O)c1c(C)n(C)c2ccc(OC(C)C(=O)OC)cc12 (stereo unspecified),0.405%,–,–
Nc1cc(N)nc(SCC(=O)NNC(=O)c2ccc(Cl)cc2)n1,34.3%,–,–
Cc1cc(F)ccc1NC(=O)C1CCN(S(=O)(=O)c2ccc3c(c2)CCCC(=O)N3)CC1,13%,–,"29.1 µM [rising, single point]"
CCOc1ccccc1N1CCN(C(=O)[C@@H]2CCCN2C2=NS(=O)(=O)c3ccccc32)CC1,-6.64%,–,"0.731 µM [falling, full curve, poor fit]"
COc1cc(/C=C(\C#N)C(=O)NCC2CCCO2)ccc1OC(C)C (stereo unspecified),-5.75%,–,–
CC(C)(C)NC(=O)CN(Cc1ccc(F)cc1)C(=O)Cn1nnc(-c2ccc(F)cc2)n1,-29%,–,–
CC1=C(C(=O)OC(C)C)C(c2cccc(F)c2)N2C(=O)C(C)SC2=N1 (stereo unspecified),–,"0.291 µM [rising, full curve]",–
CS(=O)(=O)c1ccc2nnn(OCC(=O)Nc3ccc(Br)cc3Br)c2c1,44.9%,–,–
c1ccc(-c2ccccc2OCCCCn2ccnc2)cc1,-38.6%,"8.2 µM [falling, partial curve, poor fit]",–
N#CC1(NC(=O)COC(=O)c2ccc(-c3ccc(O)cc3)cc2)CCCCC1,-43.4%,"18.4 µM [falling, single point]",–
CC1CCCN(C(=O)CSc2nc3ccccc3o2)C1 (stereo unspecified),28%,–,"2.06 µM [falling, partial curve, poor fit]"
c1ccc(-c2ccnc3nc(-n4cccc4)nn23)cc1,3.87%,–,–
Cc1ccsc1C(=O)N(C)C1CCS(=O)(=O)C1 (stereo unspecified),-21.4%,–,"0.651 µM [rising, full curve]"
COc1ccc(/C=N/NC(=O)C(C)N(c2ccc(OC)cc2)S(C)(=O)=O)cc1 (stereo unspecified),–,"0.116 µM [falling, full curve, poor fit]",–
NS(=O)(=O)c1cccc(NC(=O)COC(=O)C2CCCCC2)c1,-19.8%,"0.00517 µM [falling, full curve, poor fit]",–
CCN(CC)C(=O)C12CC3CC(CC(Br)(C3)C1)C2,8.6%,"7.31 µM [falling, partial curve, poor fit]","6.51 µM [falling, single point]"

SMILES,cell number change,AC50 [1],AC50 [2]
O=C(Nc1cccc(C(F)(F)F)c1)C1CCN(S(=O)(=O)c2ccc(N3CCCC3=O)cc2)CC1,-32.9%,"1.84 µM [falling, full curve, poor fit]","25.9 µM [falling, single point]"
COc1ccc2c(c1OC)c(=O)n1c3ccc(OC(C)C(=O)NCCCN4CCOCC4)cc3c3ccnc2c31 (stereo unspecified),6.63%,–,"3.26 µM [falling, single point]"
Cc1nc2c(-c3ccc(Cl)cc3)cnn2c2c1CCC2,3.52%,"0.13 µM [falling, full curve, poor fit]",–
O=C(CCC1COc2ccccc2O1)NCc1ccco1 (stereo unspecified),6.41%,–,"3.26 µM [falling, single point]"
Cc1ccc(NC(=O)CN2CCC(C(=O)c3ccc4c(c3)OCCO4)CC2)cc1,77%,"29.1 µM [rising, single point]","6.51 µM [falling, single point]"
Cc1ccc(N(C(=O)CNC(=O)c2ccco2)C(C(=O)NC2CCCC2)c2cccnc2)cc1F (stereo unspecified),44.2%,"32.6 µM [rising, partial curve, poor fit]",–
NC(=O)c1nsc(C(=O)N(c2cccc(F)c2)C(C(=O)NCC2CCCO2)c2ccc3ncccc3c2)c1N (stereo unspecified),-1.39%,–,"6.51 µM [falling, single point]"
CC(C)CN(C(=O)CSc1ccc2c(c1)OCCO2)c1c(N)n(CC(C)C)c(=O)[nH]c1=O,9.23%,–,"29.1 µM [rising, single point]"
COc1ccc(C(C)=O)cc1CSc1nc(C)cc(C)n1,6.21%,–,–
O=C(NCc1cccnc1)C1c2ccccc2C(=O)N1C1CCCC1 (stereo unspecified),-36.2%,"4.61 µM [falling, partial curve, poor fit]","29.1 µM [falling, single point]"
Cc1ccc(NC(=O)CN(C)C(=O)c2cc(-c3ccccc3)nn2-c2ccccc2)cc1,157%,"18.4 µM [rising, partial curve]",–
CCOC(=O)Nc1nc(C)c(C(=O)c2ccc(Cl)cc2)s1,-26.5%,–,–
Clc1ccccn1,5.37%,"0.651 µM [falling, single point]","0.651 µM [falling, single point]"
CCCCOc1ccc(N=Cc2cccs2)cc1,109%,"29.1 µM [rising, single point]",–
Cc1ccc(C(=O)Nc2sc3c(c2C(=O)O)CCCCC3)o1,-38.8%,"32.6 µM [falling, partial curve, poor fit]","6.51 µM [falling, full curve]"
O=C(CC1CCCCC1)NCc1ccc(Cl)cc1,-25.2%,–,"14.6 µM [falling, partial curve]"
O=C(NCc1ccccn1)C1CCC(=O)N(Cc2ccc(Cl)cc2)C1 (stereo unspecified),-12.4%,–,–
Cn1c(SCC(=O)Nc2ccc(Cl)cn2)nnc1C1CC1,1.14%,"0.58 µM [rising, single point]",–
CC1=NN(C(C#N)c2ccccc2C)C(c2ccccc2)C1 (stereo unspecified),-6.42%,–,–
Cc1n[nH]c(=O)c2c(NC(=O)CSc3ccc(Br)cc3)oc(C)c12,–,"6.51 µM [falling, single point]","6.51 µM [falling, single point]"

# 4 entries drawn at random from those above, as already listed:
SMILES,cell number change,AC50 [1],AC50 [2]
CC(C)(C)NC(=O)CN(Cc1ccc(F)cc1)C(=O)Cn1nnc(-c2ccc(F)cc2)n1,-29%,–,–
CC1CCN(C(=O)c2ccc(NC(=O)C3CCCO3)cc2)CC1 (stereo unspecified),147%,"20.6 µM [rising, partial curve]","29.1 µM [rising, single point]"
NS(=O)(=O)c1cccc(NC(=O)COC(=O)C2CCCCC2)c1,-19.8%,"0.00517 µM [falling, full curve, poor fit]",–
O=C(CC1CCCCC1)NCc1ccc(Cl)cc1,-25.2%,–,"14.6 µM [falling, partial curve]"

# Following part:

SMILES,cell number change,AC50 [1],AC50 [2]
COc1ccc(COC(=O)C2=C(C)NC(=O)NC2c2cc(Br)c(O)c(OC)c2)cc1 (stereo unspecified),-17.1%,–,–
O=C(CSc1nnc(CNC(=O)c2ccccc2F)o1)NC1CCCCC1,29.7%,"0.259 µM [rising, full curve, poor fit]",–
COc1cc2ccccc2cc1C(=O)N1CCN(C(C)=O)CC1,-11%,–,"23.1 µM [falling, single point]"
CCCCCC(=O)Nc1ccc(-c2nnc3n2CCCCC3)cc1,44.3%,"7.31 µM [rising, partial curve]",–
c1ccc(OCc2nnc3n2CCCCC3)cc1,30.3%,"20.6 µM [rising, single point]","18.4 µM [rising, single point]"
Cc1ccccc1CS(=O)(=O)c1cnc2ccccc2n1,10.9%,–,"1.64 µM [falling, partial curve, poor fit]"
COC(=O)c1ccc(NC(=O)COC(=O)c2nc3nccc(C)n3n2)cc1,-19.3%,–,"23.1 µM [falling, single point]"
CCCCn1c(SCC(=O)NC(=O)NCc2ccco2)nc2cc(S(N)(=O)=O)ccc21,40.4%,"1.3 µM [rising, full curve, poor fit]","29.1 µM [rising, single point]"
COc1ccc2[nH]cc(/C=N/NS(=O)(=O)c3ccc(C)cc3)c2c1,-35.5%,"29.1 µM [falling, single point]","18.4 µM [falling, single point]"
CCCc1[nH]nc2c1C(c1ccc(OC)cc1OC)C(C#N)=C(N)O2 (stereo unspecified),–,–,"0.651 µM [falling, full curve, poor fit]"
CCOC(=O)N1CCC2(CC1)CC(=O)c1c(ccc3oc(C(=O)O)c(C)c13)O2,-93.8%,"29.1 µM [falling, single point]","29.1 µM [falling, single point]"
COc1cc(=O)[nH]c(SCc2c(F)c(F)c(F)c(F)c2F)n1,-25.2%,–,"23.1 µM [rising, single point]"
Cc1cccc(COCC(Cc2ccccc2)N2CCN(C(=O)c3cc(Cl)cc(Cl)c3)CCC2=O)c1 (stereo unspecified),-0.234%,–,"8.2 µM [rising, partial curve]"
CCOc1ccc(-c2nc(C#N)c(NC3CC3)o2)cc1,–,"0.259 µM [rising, full curve]","0.92 µM [rising, full curve]"
Clc1ccc(Cn2ccc(-c3ccc4c(c3)OCO4)n2)cc1Cl,16.9%,–,"20.6 µM [rising, single point]"
COCC1CCCCN1Cc1cn[nH]c1-c1ccc(OC)cc1OC (stereo unspecified),11.6%,–,"32.6 µM [rising, partial curve, poor fit]"
CCCCNc1c(-c2ccc(OC)c(Sc3ccc(OC)cc3)c2)nc2ccccn12,-44%,"29.1 µM [falling, single point]","20.6 µM [falling, single point]"
CCN1C(=O)[C@H]2[C@@H](c3ccc(OC)cc3)N3C(=O)CN(Cc4ccccc4)C(=O)[C@@]3(C)[C@H]2C1=O,6.29%,–,"29.1 µM [rising, single point]"
CC(=O)OC1CC(c2cc(C(C)(C)C)c(O)c(C(C)(C)C)c2)=NO1 (stereo unspecified),20.7%,–,"1.64 µM [rising, partial curve]"
